Reference: PubChem BioAssay AID1224826 (NIAID, 2016)
Screen: 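Knock-downs that raise or lower Tnf reporter signal after endotoxin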 (primary screen). Cell system: RAW264.7 G9 macrophages from mouse bearing reporters for p65 (GFP) and the Tnf promoter (mCherry). Reagents: siRNA pool against mouse genes, 100 nM. Time to read-out: 16 h of LPS stimulation, after 2 days of siRNA transfection. Conditions: bacterial lipopolysaccharide (Salmonella minnesota R595), 10 ng/ml. Measurement: 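Nuclear mCherry signal of the Tnf promoter reporter measured by imaging after background removal, scaled to each plate median and turned into robust z-scores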. Direction: Tnf reporter robust z-score: higher = stronger Tnf promoter reporter signal after LPS; Tnf reporter intensity: higher = stronger Tnf promoter reporter signal. Call rule: 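Called active when robust z-score is at most -1.3, matching the median of the Tlr4 knock-down control, or over 3; control wells and wells with under 50 cells never active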. Calls: active = Tnf reporter clearly lowered or raised; inactive = no clear change in Tnf reporter.
The deposit covers about 17,000 reagents; below is an unselected part. About 1,110 of all reagents (6.6%) were called active. 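Active means lowered or raised reporter signal; replicate intensities are raw and not normalised per plate.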 Entries without a mark were called inactive. No sequences are given here.

no.	Target gene	PubChem SID	Tnf reporter robust z-score	fewer than 50 cells in well	Tnf reporter intensity, replicate 1	Tnf reporter intensity, replicate 2
1	Scgb1b2	SID315471781	1.94	enough cells in well	287	265
2	4632415L05Rik	SID315474135	-0.62	enough cells in well	139	90.7
3	Vps35	SID315472149	4.27 (active)	enough cells in well	275	229
4	Lrfn5	SID315479386	-1	enough cells in well	137	87.6
5	Rcc2	SID315476757		fewer than 50 cells per well; well left out of calls	149	51.6
6	Id1	SID315467365		fewer than 50 cells per well; well left out of calls	105	64.6
7	Ngf	SID315468169	1.64	enough cells in well	385	274
8	4933440M02Rik	SID315474203	-0.43	enough cells in well	133	127
9	Mcmbp	SID315477650	1.38	enough cells in well	429	101
10	Asic2	SID315465243	0.33	enough cells in well	265	174
11	Ripk2	SID315477419	0.22	enough cells in well	195	187
12	Prkcb	SID315468539	-0.82	enough cells in well	147	117
13	Fbxw21	SID315481223	-0.21	enough cells in well	161	115
14	Pcyt2	SID315473600		fewer than 50 cells per well; well left out of calls	225	137
15	Cd86	SID315465880	-1.12	enough cells in well	150	133
16	Trarg1	SID315479368	-0.14	enough cells in well	124	128
17	Mllt6	SID315479869	-0.24	enough cells in well	325	120
18	Bcl9	SID315475479	0.27	enough cells in well	133	211
19	Ctnnal1	SID315471203	-1.1	enough cells in well	178	108
20	Golga5	SID315470564	-0.44	enough cells in well	198	164
21	Glrx5	SID315474668		fewer than 50 cells per well; well left out of calls	208	22
22	Dph5	SID315473887	-0.44	enough cells in well	232	53.9
23	Tufm	SID315479113	1.08	enough cells in well	209	70
24	Ptpn11	SID315468795	-0.16	enough cells in well	233	182
